# Library screen at single concentrations

The chains behind the UniProt entries cited, without tags or fusion partners. Residues count along the entry.
UniProt A4I591, 1-473: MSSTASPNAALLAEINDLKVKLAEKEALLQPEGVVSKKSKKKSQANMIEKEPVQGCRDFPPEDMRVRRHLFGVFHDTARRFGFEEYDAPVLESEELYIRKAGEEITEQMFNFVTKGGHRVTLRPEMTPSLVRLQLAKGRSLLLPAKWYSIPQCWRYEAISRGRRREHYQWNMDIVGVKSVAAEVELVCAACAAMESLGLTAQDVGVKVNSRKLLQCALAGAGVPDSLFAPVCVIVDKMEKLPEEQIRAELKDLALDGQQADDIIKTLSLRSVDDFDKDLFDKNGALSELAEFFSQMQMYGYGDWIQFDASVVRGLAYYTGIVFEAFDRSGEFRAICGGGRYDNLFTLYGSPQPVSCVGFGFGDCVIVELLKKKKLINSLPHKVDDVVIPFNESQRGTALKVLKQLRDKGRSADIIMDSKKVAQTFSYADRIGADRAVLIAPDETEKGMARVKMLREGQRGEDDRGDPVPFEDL

Measurements from “University of Dundee, Small-Polar-MMV Screening Library” (2021), ChEMBL document CHEMBL3988442.

Each number is a percent effect as filed.
The record does not define 0% and 100%; most values in the screen are far below 50% and negative numbers occur (in some assays of this library far below -100).
This is an unselected part of the compounds tested.

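Enzyme assay of histidyl-tRNA synthetase; the read-out is not stated. Target: Histidine-tRNA ligase, Leishmania infantum (UniProt A4I591). Compounds at 30 µM. Direction is inferred from retests: higher values go with stronger inhibition. The assay is labelled LdHisRS but filed under L. infantum. Size under these conditions: about 69,000 compounds, about 410 of them at 50% or above in at least one test.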

| compound | effect |
|---|---|
| `O=c1n(CC2COCCO2)nc(CC2CCNCC2)n1-c1ccccc1` (stereo unspecified) | 27.4 |
| `O=C(NCc1ccnc(OCC(F)(F)F)c1)NCC1CCCO1` (stereo unspecified) | 12.5 |
| `Cc1ccccc1C(C(=O)NCCn1cccc1)N(C)C` (stereo unspecified) | 16.48 |
| `CCc1noc(C(C)N2CCC(C(=O)Nc3cnn(CC)c3)CC2)n1` (stereo unspecified) | -2.703 |
| `Cc1ncc(C(=O)N2CC(C(=O)N3CCCCCC3)C2)c(C)n1` | 9.859 |
| `CCC(=O)N1CCCC1c1nccnc1Nc1ncccn1` (stereo unspecified) | 0 |
| `CC(=O)N1CCC(C(=O)NCCc2c[nH]c3cc(C)ccc23)CC1` | 2.174 |
| `COc1cccc([C@H]2CN(C(C)=O)[C@@H]3CCN(Cc4ccsc4)C[C@H]23)c1` | 17.14 |
| `CN(C)c1cncc(C2CCN(CC3(O)CCCCC3)CC2)n1` | 3.125 |
| `CCCc1ncc(CNC2(c3ccc(Cl)cc3)CC2)cn1` | 17.89 |
| `Cc1ccsc1CN(C)C(=O)c1cc2c([nH]c1=O)CCCC2=O` | 9.174 |
| `O=C(NCc1ccccc1)N1CCC(Oc2ncccc2Br)CC1` | 7.692 |
| `CC(C)OCCCNC(=O)CN(c1ccc(F)c(F)c1)S(C)(=O)=O` | 5.517 |
| `Cc1cc(C(=O)N2C[C@H](c3ccccc3)[C@@H](N)C2)c2ccc(F)cc2n1` | 16.33 |
| `CCC1=N[C@@]2(CC[C@@H]3CN(C(=O)NCC4CCCCC4)C[C@@H]32)C(=O)N1` | 13.76 |
| `Cc1cnn(C2CN(CC(=O)NCC(C)C)C2)c1` | 39.47 |
| `CC(C)c1nnsc1CN1CCc2[nH]nc(-c3ccc(Cl)cc3)c2C1` | 42.11 |
| `CSCCC(NC(=O)c1ccco1)C(=O)N(C)Cc1ccsc1` (stereo unspecified) | 4.145 |
| `CC(C)c1nnc2n1CCN(Cc1csc(CC(=O)N(C)C)n1)C2` | 10.4 |
| `COc1cc(S(=O)(=O)N2CCc3ccc(F)cc32)cc(C(=O)O)c1OC` | 12.16 |
| `Cc1ncncc1C(=O)N1CCCC(c2[nH]ncc2S(C)(=O)=O)C1` (stereo unspecified) | -1.449 |
| `O=S(=O)(c1cccnc1)N1C[C@@H]2COC[C@]2(COCC2CC2)C1` | 1.754 |
| `COCCC(=O)N1C[C@H]2CN(Cc3cccc(C)n3)C(=O)[C@H]2C1` | 21.95 |
| `Cc1nc(CNC(=O)NC2CCN(c3ncccn3)CC2)cs1` | 18.09 |
| `Cn1nc(C2CCNC2)c2c(C(=O)NC3CC3)cc(C3CC3)nc21` (stereo unspecified) | 40 |
| `Cc1cc(-c2nn3c(C4CCC4)nnc3s2)on1` | -2.174 |
| `CN1N=C(C(=O)Nc2cc(F)ccc2OCC2CCCO2)CCC1=O` (stereo unspecified) | 10.96 |
| `OCCN1CCN(CC2(O)CCCCC2)CC1` | 8.571 |
| `CC(C)Oc1ncccc1CNC(=O)N1CCC1c1ccccc1` (stereo unspecified) | 16.8 |
| `O=C(NCCn1cccc1)C1CCCOC1` (stereo unspecified) | 21.28 |
| `O=C(NC1CC1)C1CCCN1c1ncnc2ccsc12` (stereo unspecified) | 6.349 |
| `c1cncc(N2CCCC3(CN(Cc4cccs4)CCO3)C2)c1` (stereo unspecified) | 7.519 |
| `Cc1nn(C)c(C)c1S(=O)(=O)N1C[C@@H]2C[C@@H](C)O[C@@H]2C1` | 1.923 |
| `N#Cc1cccc(OCCN2CCNC(=O)C2c2cccs2)c1` (stereo unspecified) | 12.9 |
| `CCC(CNC(=O)c1cc(CC(C)C)nn1C)N(C)CC` (stereo unspecified) | 12.5 |
| `Cc1ccc2c(c1)C1(CCNCC1)CC2NC(C)C` (stereo unspecified) | 26.32 |
| `CCC(C(=O)N1CCN(S(=O)(=O)N2CCCC2)CC1)n1cccn1` (stereo unspecified) | 14.52 |
| `CC(=O)c1cccc(NC(=O)NCCc2nnc[nH]2)c1` | 15.38 |
| `CN(Cc1ccc(-n2cccn2)cc1)CC1CCCN1c1cccnn1` (stereo unspecified) | 22.12 |
| `CC(C)(C)NC(=O)c1ccc(COCC(F)(F)F)o1` | 9.783 |
| `CCCc1cc(C(=O)NC(COC)c2ccnn2C)no1` (stereo unspecified) | 18.07 |
| `CNS(=O)(=O)CCCN1CCCC1c1cc(C)on1` (stereo unspecified) | -10.11 |
| `CN(CC1COc2ccccc2O1)C(=O)CCn1cncn1` (stereo unspecified) | 16.07 |
| `CCn1ccnc1CN1CCN(Cc2ccccn2)CC1C` (stereo unspecified) | 11.54 |
| `CC(c1ncc(C(C)(C)C)o1)N1CCN(Cc2ccco2)CC1` (stereo unspecified) | -2.083 |
| `O=C(C[S+]([O-])Cc1ccc(F)cc1)N1CCc2sccc2C1` (stereo unspecified) | -2.941 |
| `N#Cc1ccc(C(=O)N(Cc2ccncc2)C2CC2)cc1` | 18.48 |
| `CC(=O)NCc1ccc(C(=O)N2CCCc3c(F)ccc(C)c32)cc1` | 15.5 |
| `Cc1cnccc1N1CCN(C(=O)C2CC3(CCNCC3)CN2)CC1` (stereo unspecified) | 16.44 |
| `CCCc1nc2c(c(C)c(C)n2Cc2cccnc2)c(N)c1CC` | -3.297 |
| `CCC(C)(CC(=O)O)NC(=O)Cc1ccccc1F` (stereo unspecified) | 15.25 |
| `COc1ccc(C)cc1CN1CCn2cccc2C1C` (stereo unspecified) | 41.96 |
| `CN(C)C(=O)C1CCN(Cn2ccc(-c3ccc(F)cc3)n2)CC1` | 13.33 |
| `CNC(=O)N1CCC2(CC1)CC[C@@]1(C(=O)NC)CN(S(C)(=O)=O)C[C@@H]21` | 9.722 |
| `O=C(c1n[nH]c(=O)c2ccccc12)N1CCCCC1c1ccn[nH]1` (stereo unspecified) | 2.778 |
| `CCCc1cc(C(=O)N[C@@H](CO)[C@@H](O)c2ccccc2)n(C)n1` | -1.399 |
| `O=C(c1n[nH]c2c1CN(C1CCOC1)CC2)N1CCCC1` (stereo unspecified) | 17.31 |
| `O=C(NCCN1CCOCC1)c1ccc(-n2ccc3ccccc32)s1` | 20.39 |
| `CCn1nc(C)c(NC(=O)c2cc(NC(=O)C3CC3)n(C)n2)c1C` | 11.76 |
| `O=C(NCc1nnc2n1CCC2)c1cn(-c2ccccc2Br)nn1` | 10.62 |
| `O=C(NCCn1cc(Cl)cn1)C1CCN(C(=O)C2CC2)CC1` | 17.95 |
| `CC(=O)N1CCC2(CC1)NC(=O)[C@H]1CN(Cc3cccnc3)C[C@H]12` | 21.36 |
| `CSc1nccc(N2CCC3(CCCN(CC4CC4)C3)C2)n1` (stereo unspecified) | 15.93 |
| `COc1ccc(CC2CN(C3CCSCC3)CCO2)cc1` (stereo unspecified) | 12.94 |
| `CNC(=O)[C@H]1C[C@@H]2CN(Cc3csc(C)n3)C[C@@H]2N1S(C)(=O)=O` | 7.692 |

The last 7 entries again:

| compound | effect |
|---|---|
| `CCn1nc(C)c(NC(=O)c2cc(NC(=O)C3CC3)n(C)n2)c1C` | 11.76 |
| `O=C(NCc1nnc2n1CCC2)c1cn(-c2ccccc2Br)nn1` | 10.62 |
| `O=C(NCCn1cc(Cl)cn1)C1CCN(C(=O)C2CC2)CC1` | 17.95 |
| `CC(=O)N1CCC2(CC1)NC(=O)[C@H]1CN(Cc3cccnc3)C[C@H]12` | 21.36 |
| `CSc1nccc(N2CCC3(CCCN(CC4CC4)C3)C2)n1` (stereo unspecified) | 15.93 |
| `COc1ccc(CC2CN(C3CCSCC3)CCO2)cc1` (stereo unspecified) | 12.94 |
| `CNC(=O)[C@H]1C[C@@H]2CN(Cc3csc(C)n3)C[C@@H]2N1S(C)(=O)=O` | 7.692 |